This passage reports binding results from article PMC6589724, “A geminivirus betasatellite encoded βC1 protein interacts with PsbP and subverts PsbP‐mediated antiviral defence in plants”.

Test [1] addresses BD‐βC1 (βC1 protein of Radish leaf curl betasatellite, yeast two-hybrid bait) (Radish leaf curl betasatellite). Briefly: two-hybrid; S. cerevisiae AH109; BD fusions (pGBKT7) with AD fusions (pGADT7); growth on SD‐Leu‐Trp‐His with 5 mM 3‐amino‐1,2,4‐triazole at 30 °C for 96 h.
Test [2] deals with GST‐βC1 (recombinant βC1 of Radish leaf curl betasatellite) (Radish leaf curl betasatellite). Briefly: pull-down; equal amounts of bacterially purified GST or GST‐βC1 and MBP or MBP‐PsbP mixed and incubated with glutathione resin for 4 h at 4 °C, five washes, eluate blotted with anti‐GST and anti‐MBP; both purified.

These are yes or no findings as the source states them, for the method shown. Binding calls can cover weak binding; strength is not graded here. Tags and fused reporters may be left off the sequences shown.

B1: AD‐PsbP (Nicotiana benthamiana PsbP1, oxygen‐evolving enhancer protein 2, yeast two-hybrid prey) (protein, UniProt I0B7J5 1-265)
chain: MASTQCFLHHHALSTPARTPLVRSIVPSLKPNQLLVCRAQKQSAPQEDNVNSLSLSRRLALTLLIGSAAIGSKVSPADAAYGEAANVFGKPKTDTDFQTYNGDGFKLQIPSKWNPNKEVEYPGQVLRFEDNFDATSNVIVAITPTDKKSITDFGSPEQFLSQVDYLLGRQAYSGKTDSEGGFESDAVAIANVLETSSAEVIGKPYYYLSVLTRTADGNEGGKHQLITATVNDGKLYICKAQAGDKRWFKGAKKFVENTVTSFSLA
In the case of B1, the binding result in test [1] is on record as “binds”.

B2: MBP‐PsbP (recombinant Nicotiana benthamiana PsbP1) (protein, UniProt I0B7J5 1-265)
chain: MASTQCFLHHHALSTPARTPLVRSIVPSLKPNQLLVCRAQKQSAPQEDNVNSLSLSRRLALTLLIGSAAIGSKVSPADAAYGEAANVFGKPKTDTDFQTYNGDGFKLQIPSKWNPNKEVEYPGQVLRFEDNFDATSNVIVAITPTDKKSITDFGSPEQFLSQVDYLLGRQAYSGKTDSEGGFESDAVAIANVLETSSAEVIGKPYYYLSVLTRTADGNEGGKHQLITATVNDGKLYICKAQAGDKRWFKGAKKFVENTVTSFSLA
As for B2, the binding result in test [2] is reported as “binds”.

B3: AD‐PsbPD1 (NbPsbP1 amino acids 1‐100, yeast two-hybrid prey) (domain or fragment, UniProt I0B7J5 1-100)
chain: MASTQCFLHHHALSTPARTPLVRSIVPSLKPNQLLVCRAQKQSAPQEDNVNSLSLSRRLALTLLIGSAAIGSKVSPADAAYGEAANVFGKPKTDTDFQTY
For B3, the binding result in test [1] is reported as “no binding”.

B4: AD‐NtPsbP (PsbP1 of Nicotiana tabacum cv. Samsun NN, yeast two-hybrid prey) (protein, UniProt Q7DM39 1-268)
chain: MASTQCFLHQHALSSSAARTTSSVSSQRYVSSLKPNQLVCRAQKQSSPQEDDGNSVVVSRRLALTVLIGAAAIGSKVSPADAAYGEAANVFGKPKENTDFLAYNGDGFKLQVPAKWNPSKEVEFPGQVLRYEDNFDSTSNLIVTVTPTDKKSITDYGSPEEFLTQVDFLLGKQAYFGKTDSEGGFESGAVATANLLETSSSTVGGKEYYILSVLTRTADGDEGGKHQLISATVNGGKLYICKAQAGDKRWFKGARKFVENAATSFSVA
On to B4, for which the binding entry in test [1] is on record as “binds”.

B5: AD‐PsbPD12 (NbPsbP1 amino acids 1‐200, yeast two-hybrid prey) (domain or fragment, UniProt I0B7J5 1-200)
chain: MASTQCFLHHHALSTPARTPLVRSIVPSLKPNQLLVCRAQKQSAPQEDNVNSLSLSRRLALTLLIGSAAIGSKVSPADAAYGEAANVFGKPKTDTDFQTYNGDGFKLQIPSKWNPNKEVEYPGQVLRFEDNFDATSNVIVAITPTDKKSITDFGSPEQFLSQVDYLLGRQAYSGKTDSEGGFESDAVAIANVLETSSAEV
As for B5, the binding entry in test [1] was “binds”.
